This note sets out measurements from article PMC12238573 (Nature Communications, 2025).

Assay [1] deals with T1, PRPS1 (endogenous, mouse) (mouse (endogenous in NIH3T3 and C57BL/6 tissues)) (UniProt Q9D7G0).
T1 sequence: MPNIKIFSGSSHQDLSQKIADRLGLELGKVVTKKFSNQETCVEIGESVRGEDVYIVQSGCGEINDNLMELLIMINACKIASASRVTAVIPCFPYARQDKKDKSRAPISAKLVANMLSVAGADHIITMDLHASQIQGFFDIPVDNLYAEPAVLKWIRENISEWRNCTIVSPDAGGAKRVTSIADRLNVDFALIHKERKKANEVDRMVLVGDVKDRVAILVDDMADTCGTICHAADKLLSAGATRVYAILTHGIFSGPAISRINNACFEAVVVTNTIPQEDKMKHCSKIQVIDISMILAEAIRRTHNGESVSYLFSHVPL
Kind of assay: SEC; native whole-cell lysates of NIH3T3 CRISPR knockout lines (P2/AP1/AP2, P2/AP1, P1/AP2, P1, P2, AP2, AP1, AP1/AP2, P1/AP1 KO), some re-expressing PRPS2, AP1 or AP2 constructs, on Superose 6 Increase 3.2/300; fractions analysed by Western blot. Background: SEC sorts molecules by how far they enter the pores of the column.

For assay [2], the target named is T2, PRPS1-mNG11-ALFA (endogenous knock-in) (mouse (endogenous in NIH3T3)) (UniProt Q9D7G0).
T2 sequence: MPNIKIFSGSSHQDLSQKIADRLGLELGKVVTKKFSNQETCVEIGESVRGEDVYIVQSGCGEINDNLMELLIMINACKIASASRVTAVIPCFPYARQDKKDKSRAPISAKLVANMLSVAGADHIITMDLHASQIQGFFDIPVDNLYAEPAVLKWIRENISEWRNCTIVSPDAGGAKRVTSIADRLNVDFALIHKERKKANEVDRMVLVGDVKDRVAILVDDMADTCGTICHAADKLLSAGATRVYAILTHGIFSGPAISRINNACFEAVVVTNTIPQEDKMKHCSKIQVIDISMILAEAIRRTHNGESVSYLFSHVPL
As to the kind of experiment: co-IP; ALFA-tag pulldown (anti-ALFA nanobody agarose) from lysate of NIH3T3 knock-in cells expressing PRPS1-ALFA from the endogenous locus; washes with 0.5 M NaCl, 0.5% Triton X-100.

Assay [3] addresses T1, PRPS1 (endogenous, mouse) (mouse (endogenous in NIH3T3 and C57BL/6 tissues)). As to the kind of experiment: SEC; native whole-cell lysates of parental NIH3T3 and HEK293T cells on Superose 6 Increase 3.2/300; fractions analysed by Western blot with internal size standards; digitonin lysis buffer pH 7.5, 200 mM NaCl.
Assay [4] deals with T3, PRPS2 (endogenous, mouse) (mouse (endogenous in NIH3T3 and C57BL/6 tissues)) (UniProt Q9CS42).
T3 sequence: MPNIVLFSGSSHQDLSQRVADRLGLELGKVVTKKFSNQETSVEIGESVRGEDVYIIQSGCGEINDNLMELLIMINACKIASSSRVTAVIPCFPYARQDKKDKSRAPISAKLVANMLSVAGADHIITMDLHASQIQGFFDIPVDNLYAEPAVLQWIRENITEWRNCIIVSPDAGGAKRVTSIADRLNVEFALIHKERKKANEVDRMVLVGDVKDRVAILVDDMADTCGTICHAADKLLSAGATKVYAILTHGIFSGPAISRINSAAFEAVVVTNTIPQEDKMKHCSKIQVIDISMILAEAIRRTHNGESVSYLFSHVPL
Described as above.

Assay [5] addresses T1, PRPS1 (endogenous, mouse) (mouse (endogenous in NIH3T3 and C57BL/6 tissues)). Kind of assay: SEC; native tissue lysates (liver, kidney, lung) of 12-week-old male C57BL/6 mice on Superose 6 Increase 3.2/300; fractions analysed by Western blot.
Assay [6] concerns the target T3, PRPS2 (endogenous, mouse) (mouse (endogenous in NIH3T3 and C57BL/6 tissues)). The assay is described as above.
Assay [7] addresses T4, PRPS2 (endogenous, human) (human (endogenous in HEK293T)) (UniProt P11908).
T4 sequence: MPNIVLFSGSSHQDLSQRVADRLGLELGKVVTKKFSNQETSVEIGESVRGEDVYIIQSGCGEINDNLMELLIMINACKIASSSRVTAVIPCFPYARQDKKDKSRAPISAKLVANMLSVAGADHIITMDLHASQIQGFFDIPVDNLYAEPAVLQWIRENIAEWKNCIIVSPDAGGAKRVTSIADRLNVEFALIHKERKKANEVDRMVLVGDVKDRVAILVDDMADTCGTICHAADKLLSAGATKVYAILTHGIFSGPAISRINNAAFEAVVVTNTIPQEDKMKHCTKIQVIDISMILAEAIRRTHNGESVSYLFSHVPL
Kind of assay: SEC; native whole-cell lysates of parental NIH3T3 and HEK293T cells on Superose 6 Increase 3.2/300; fractions analysed by Western blot with internal size standards; digitonin lysis buffer pH 7.5, 200 mM NaCl.

Assay [8] concerns the target T5, PRPS1 (endogenous, human) (human (endogenous in HEK293T)) (UniProt P60891).
T5 sequence: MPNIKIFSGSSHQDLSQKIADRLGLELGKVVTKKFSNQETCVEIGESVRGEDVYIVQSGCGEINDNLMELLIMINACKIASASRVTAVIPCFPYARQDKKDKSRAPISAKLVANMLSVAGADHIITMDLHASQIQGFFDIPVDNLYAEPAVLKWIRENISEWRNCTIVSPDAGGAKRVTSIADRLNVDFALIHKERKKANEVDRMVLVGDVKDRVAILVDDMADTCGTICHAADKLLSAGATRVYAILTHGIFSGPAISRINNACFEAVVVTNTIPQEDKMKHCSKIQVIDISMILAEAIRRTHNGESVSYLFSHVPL
Described as above.

The target in assay [9] is T6, PRPSAP2 (endogenous, human) (human (endogenous in HEK293T)) (UniProt O60256).
T6 sequence: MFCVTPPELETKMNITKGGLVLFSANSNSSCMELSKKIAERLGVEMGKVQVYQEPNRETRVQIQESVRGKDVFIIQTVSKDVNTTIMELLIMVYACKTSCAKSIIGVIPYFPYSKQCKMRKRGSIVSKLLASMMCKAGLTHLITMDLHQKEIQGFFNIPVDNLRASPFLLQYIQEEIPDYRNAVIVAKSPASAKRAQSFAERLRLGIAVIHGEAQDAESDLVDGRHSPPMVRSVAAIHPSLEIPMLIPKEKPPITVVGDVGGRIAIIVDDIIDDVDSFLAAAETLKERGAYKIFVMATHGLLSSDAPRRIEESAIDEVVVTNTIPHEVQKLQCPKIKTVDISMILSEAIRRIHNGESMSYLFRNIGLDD
The assay is described as above.

These are yes or no findings as the source states them, for the method shown. For some assays here: In cells and extracts the contact can be indirect. Some entries that bind do so weakly or less than the wild type.

B1: PRPSAP2 (endogenous, mouse) (protein, UniProt Q8R574 1-369)
chain: MFCVAPPELETKMNITKGGLVLFSANSNSSCMELSKKIAERLGVEMGKVQVYQEPNRETRVQIQESVRGKDVFIIQTISKDVNTTIMELLIMVYACKTSCAKSIIGVIPYFPYSKQCKMRKRGSIVSKLLASMMCKAGLTHLITMDLHQKEIQGFFNIPVDNLRASPFLLQYIQEEIPDYRNAVIVAKSPASAKRAQSFAERLRLGIAVIHGEAQDAESDLVDGRHSPPMVRSVAAIHPSLEIPMLIPKEKPPITVVGDVGGRIAIIVDDIIDDVDSFLAAAETLKERGAYKIFVMATHGLLSSDAPRLIEESAIDEVVVTNTIPHEIQKLQCPKIKTVDISMILSEAIRRIHNGESMSYLFRNIGLDD
For B1, the binding entry in [1], in assay [2], in assay [3], in [4], in assay [5] and in assay [6] was “binds” in each case.

B2: PRPSAP2 (endogenous, human) (protein, UniProt O60256-1 1-369)
chain: MFCVTPPELETKMNITKGGLVLFSANSNSSCMELSKKIAERLGVEMGKVQVYQEPNRETRVQIQESVRGKDVFIIQTVSKDVNTTIMELLIMVYACKTSCAKSIIGVIPYFPYSKQCKMRKRGSIVSKLLASMMCKAGLTHLITMDLHQKEIQGFFNIPVDNLRASPFLLQYIQEEIPDYRNAVIVAKSPASAKRAQSFAERLRLGIAVIHGEAQDAESDLVDGRHSPPMVRSVAAIHPSLEIPMLIPKEKPPITVVGDVGGRIAIIVDDIIDDVDSFLAAAETLKERGAYKIFVMATHGLLSSDAPRRIEESAIDEVVVTNTIPHEVQKLQCPKIKTVDISMILSEAIRRIHNGESMSYLFRNIGLDD
For B2, in [7], the binding entry is on record as “binds”.

B3: PRPS2 (endogenous, human) (enzyme, UniProt P11908-1 1-318)
chain: MPNIVLFSGSSHQDLSQRVADRLGLELGKVVTKKFSNQETSVEIGESVRGEDVYIIQSGCGEINDNLMELLIMINACKIASSSRVTAVIPCFPYARQDKKDKSRAPISAKLVANMLSVAGADHIITMDLHASQIQGFFDIPVDNLYAEPAVLQWIRENIAEWKNCIIVSPDAGGAKRVTSIADRLNVEFALIHKERKKANEVDRMVLVGDVKDRVAILVDDMADTCGTICHAADKLLSAGATKVYAILTHGIFSGPAISRINNAAFEAVVVTNTIPQEDKMKHCTKIQVIDISMILAEAIRRTHNGESVSYLFSHVPL
In the case of B3, the binding entry in assay [8] is “binds”.

B4: exogenous PRPS2 (lentiviral PRPS2-ALFA) (enzyme, UniProt Q9CS42 1-318)
chain: MPNIVLFSGSSHQDLSQRVADRLGLELGKVVTKKFSNQETSVEIGESVRGEDVYIIQSGCGEINDNLMELLIMINACKIASSSRVTAVIPCFPYARQDKKDKSRAPISAKLVANMLSVAGADHIITMDLHASQIQGFFDIPVDNLYAEPAVLQWIRENITEWRNCIIVSPDAGGAKRVTSIADRLNVEFALIHKERKKANEVDRMVLVGDVKDRVAILVDDMADTCGTICHAADKLLSAGATKVYAILTHGIFSGPAISRINSAAFEAVVVTNTIPQEDKMKHCSKIQVIDISMILAEAIRRTHNGESVSYLFSHVPL
Regarding B4, in assay [1], the binding entry is “binds”.

B5: PRPSAP1 (endogenous, human) (protein, UniProt Q14558 1-356)
chain: MNAARTGYRVFSANSTAACTELAKRITERLGAELGKSVVYQETNGETRVEIKESVRGQDIFIIQTIPRDVNTAVMELLIMAYALKTACARNIIGVIPYFPYSKQSKMRKRGSIVCKLLASMLAKAGLTHIITMDLHQKEIQGFFSFPVDNLRASPFLLQYIQEEIPNYRNAVIVAKSPDAAKRAQSYAERLRLGLAVIHGEAQCTELDMDDGRHSPPMVKNATVHPGLELPLMMAKEKPPITVVGDVGGRIAIIVDDIIDDVESFVAAAEILKERGAYKIYVMATHGILSAEAPRLIEESSVDEVVVTNTVPHEVQKLQCPKIKTVDISLILSEAIRRIHNGESMAYLFRNITVDD
In the case of B5, the binding entry in [9] and in [7] was “binds” throughout.
